{"source": "PubChem BioAssay AID1259308 (NCATS, 2017)", "test": "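Knock-downs that increase output of a recombinant reporter protein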 (primary screen)", "cell system": "human HEK293 embryonic kidney cells stably expressing firefly luciferase (HEK-CMV-Luc2-Hygro)", "reagent": "single siRNA against human genes, 0.8 pmol siRNA per well", "time to read-out": "72 h", "read-out": "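Luciferase light (ONE-Glo) measured on one replicate plate set and viability (CellTiter-Glo) on the other, scaled to a negative control siRNA, with robust z-scores and luciferase per cell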", "reading the numbers": "total luciferase, z-score and total luciferase, % of control: higher = more reporter protein produced", "active means": "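An siRNA counts as active if its total luciferase robust z-score exceeds 3; genes with two or more such siRNAs out of three were retested with fresh siRNAs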", "calls": "active = raised luciferase; inactive = no rise", "note": "The deposit covers about 59,000 reagents; this is a random part of them. About 1,510 of them (2.6%) were called active. 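Calls use total luciferase alone and ignore viability, so some active siRNAs may act by altering cell number.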 Reagents against one gene are numbered here. Not all columns of the deposit are shown. No sequences are given here."}
{"Target gene": "TICAM2 (TIR domain containing adaptor molecule 2)", "siRNA no.": 1, "total luciferase, z-score": 1.92, "total luciferase, % of control": 120, "outcome": "inactive"}
{"Target gene": "TICAM2 (TIR domain containing adaptor molecule 2)", "siRNA no.": 2, "total luciferase, z-score": 0.977, "total luciferase, % of control": 101, "outcome": "inactive"}
{"Target gene": "TICAM2 (TIR domain containing adaptor molecule 2)", "siRNA no.": 3, "total luciferase, z-score": 1.33, "total luciferase, % of control": 108, "outcome": "inactive"}
{"Target gene": "RACK1P1 (RACK1 pseudogene 1)", "siRNA no.": 1, "total luciferase, z-score": -1.41, "total luciferase, % of control": 53.7, "outcome": "inactive"}
{"Target gene": "RACK1P1 (RACK1 pseudogene 1)", "siRNA no.": 2, "total luciferase, z-score": -0.263, "total luciferase, % of control": 76.7, "outcome": "inactive"}
{"Target gene": "RACK1P1 (RACK1 pseudogene 1)", "siRNA no.": 3, "total luciferase, z-score": 2.14, "total luciferase, % of control": 125, "outcome": "inactive"}
{"Target gene": "TDRD12 (tudor domain containing 12)", "siRNA no.": 1, "total luciferase, z-score": -0.554, "total luciferase, % of control": 70.9, "outcome": "inactive"}
{"Target gene": "TDRD12 (tudor domain containing 12)", "siRNA no.": 2, "total luciferase, z-score": 0.525, "total luciferase, % of control": 92.3, "outcome": "inactive"}
{"Target gene": "TDRD12 (tudor domain containing 12)", "siRNA no.": 3, "total luciferase, z-score": -1.16, "total luciferase, % of control": 58.8, "outcome": "inactive"}
{"Target gene": "IMPA2 (inositol monophosphatase 2)", "siRNA no.": 1, "total luciferase, z-score": 0.449, "total luciferase, % of control": 90.8, "outcome": "inactive"}
{"Target gene": "IMPA2 (inositol monophosphatase 2)", "siRNA no.": 2, "total luciferase, z-score": 2.51, "total luciferase, % of control": 132, "outcome": "inactive"}
{"Target gene": "IMPA2 (inositol monophosphatase 2)", "siRNA no.": 3, "total luciferase, z-score": -0.527, "total luciferase, % of control": 71.4, "outcome": "inactive"}
{"Target gene": "KCNJ5-AS1 (KCNJ5 antisense RNA 1)", "siRNA no.": 1, "total luciferase, z-score": -0.00777, "total luciferase, % of control": 81.7, "outcome": "inactive"}
{"Target gene": "KCNJ5-AS1 (KCNJ5 antisense RNA 1)", "siRNA no.": 2, "total luciferase, z-score": -0.725, "total luciferase, % of control": 67.5, "outcome": "inactive"}
{"Target gene": "KCNJ5-AS1 (KCNJ5 antisense RNA 1)", "siRNA no.": 3, "total luciferase, z-score": 0.143, "total luciferase, % of control": 84.7, "outcome": "inactive"}
{"Target gene": "TPPP3 (tubulin polymerization promoting protein family member 3)", "siRNA no.": 1, "total luciferase, z-score": 0.235, "total luciferase, % of control": 86.6, "outcome": "inactive"}
{"Target gene": "TPPP3 (tubulin polymerization promoting protein family member 3)", "siRNA no.": 2, "total luciferase, z-score": -0.0778, "total luciferase, % of control": 80.3, "outcome": "inactive"}
{"Target gene": "TPPP3 (tubulin polymerization promoting protein family member 3)", "siRNA no.": 3, "total luciferase, z-score": -1.26, "total luciferase, % of control": 56.8, "outcome": "inactive"}
{"Target gene": "ZRANB3 (zinc finger RANBP2-type containing 3)", "siRNA no.": 1, "total luciferase, z-score": 0.906, "total luciferase, % of control": 99.9, "outcome": "inactive"}
{"Target gene": "ZRANB3 (zinc finger RANBP2-type containing 3)", "siRNA no.": 2, "total luciferase, z-score": -0.197, "total luciferase, % of control": 78, "outcome": "inactive"}
{"Target gene": "ZRANB3 (zinc finger RANBP2-type containing 3)", "siRNA no.": 3, "total luciferase, z-score": -0.424, "total luciferase, % of control": 73.5, "outcome": "inactive"}
{"Target gene": "RBM24 (RNA binding motif protein 24)", "siRNA no.": 1, "total luciferase, z-score": 0.183, "total luciferase, % of control": 85.5, "outcome": "inactive"}
{"Target gene": "RBM24 (RNA binding motif protein 24)", "siRNA no.": 2, "total luciferase, z-score": -0.489, "total luciferase, % of control": 72.2, "outcome": "inactive"}
{"Target gene": "RBM24 (RNA binding motif protein 24)", "siRNA no.": 3, "total luciferase, z-score": 1.24, "total luciferase, % of control": 106, "outcome": "inactive"}
{"Target gene": "PPP2R2A (protein phosphatase 2 regulatory subunit Balpha)", "siRNA no.": 1, "total luciferase, z-score": -1.16, "total luciferase, % of control": 58.7, "outcome": "inactive"}
{"Target gene": "PPP2R2A (protein phosphatase 2 regulatory subunit Balpha)", "siRNA no.": 2, "total luciferase, z-score": -1.11, "total luciferase, % of control": 59.8, "outcome": "inactive"}
{"Target gene": "PPP2R2A (protein phosphatase 2 regulatory subunit Balpha)", "siRNA no.": 3, "total luciferase, z-score": -2.46, "total luciferase, % of control": 33, "outcome": "inactive"}
{"Target gene": "CHCHD7 (coiled-coil-helix-coiled-coil-helix domain containing 7)", "siRNA no.": 1, "total luciferase, z-score": -1.05, "total luciferase, % of control": 61, "outcome": "inactive"}
{"Target gene": "CHCHD7 (coiled-coil-helix-coiled-coil-helix domain containing 7)", "siRNA no.": 2, "total luciferase, z-score": 0.361, "total luciferase, % of control": 89.1, "outcome": "inactive"}
{"Target gene": "CHCHD7 (coiled-coil-helix-coiled-coil-helix domain containing 7)", "siRNA no.": 3, "total luciferase, z-score": -0.437, "total luciferase, % of control": 73.2, "outcome": "inactive"}
{"Target gene": "IL15RA (interleukin 15 receptor subunit alpha)", "siRNA no.": 1, "total luciferase, z-score": 0.246, "total luciferase, % of control": 86.8, "outcome": "inactive"}
{"Target gene": "IL15RA (interleukin 15 receptor subunit alpha)", "siRNA no.": 2, "total luciferase, z-score": 3.38, "total luciferase, % of control": 149, "outcome": "active"}
{"Target gene": "IL15RA (interleukin 15 receptor subunit alpha)", "siRNA no.": 3, "total luciferase, z-score": -0.395, "total luciferase, % of control": 74, "outcome": "inactive"}

Just “total luciferase, % of control”, for 3 of the entries above:
IL15RA (interleukin 15 receptor subunit alpha) #1: 86.8
IL15RA (interleukin 15 receptor subunit alpha) #2: 149
IL15RA (interleukin 15 receptor subunit alpha) #3: 74
